# Hit rate of the full screen: of about 390,000 compounds, about 4,000 (1%) were called active. This list was built around the results that the source calls inconclusive (neither active nor inactive); the mix of calls is not that of the screen. The call rests on the fitted dose curve; in most records, active means well fitted inhibition curve with a large enough effect; inconclusive means small, poorly fitted or top-dose-only effect, or another doubt; inactive means no such curve, though single readings can be large or run the other way. A potency beside an inconclusive call is a rough fit, not a confirmed value.
# Amino acid sequences for entries named in this document (tags omitted). A change or cut given only in a name is not applied to a line headed by its entry.
# UniProt Q9UNA4: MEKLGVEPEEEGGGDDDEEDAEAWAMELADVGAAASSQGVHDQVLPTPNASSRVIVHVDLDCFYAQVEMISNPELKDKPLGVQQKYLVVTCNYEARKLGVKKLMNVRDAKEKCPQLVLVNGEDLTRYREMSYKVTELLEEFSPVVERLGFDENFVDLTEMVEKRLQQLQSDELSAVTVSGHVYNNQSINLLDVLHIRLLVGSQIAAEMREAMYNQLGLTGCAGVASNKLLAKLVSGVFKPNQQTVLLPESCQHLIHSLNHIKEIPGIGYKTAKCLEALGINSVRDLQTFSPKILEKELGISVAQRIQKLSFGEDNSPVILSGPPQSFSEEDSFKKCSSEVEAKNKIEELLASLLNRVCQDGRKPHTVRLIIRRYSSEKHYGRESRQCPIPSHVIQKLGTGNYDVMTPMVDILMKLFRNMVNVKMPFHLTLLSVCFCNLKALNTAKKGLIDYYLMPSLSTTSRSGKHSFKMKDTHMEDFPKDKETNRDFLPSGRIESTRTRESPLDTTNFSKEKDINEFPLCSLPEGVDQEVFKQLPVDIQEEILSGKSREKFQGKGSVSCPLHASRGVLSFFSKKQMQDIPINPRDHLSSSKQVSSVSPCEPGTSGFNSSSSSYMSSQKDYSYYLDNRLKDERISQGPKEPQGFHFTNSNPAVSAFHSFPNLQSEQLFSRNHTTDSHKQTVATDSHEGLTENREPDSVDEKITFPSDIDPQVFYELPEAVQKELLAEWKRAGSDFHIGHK
# Molecular target: DNA polymerase iota (Homo sapiens) (UniProt Q9UNA4)
# Assay: qHTS for Inhibitors of Polymerase Iota
# Details: Pol iota fluorescent replication assay, 10 min; series mostly up to 115 µM; activity, negative = inhibition: at the top concentration
# In short: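 Pol iota at 10 nM preincubated 15 min with compounds at room temperature; reaction started with fluorescent substrate, 50 nM final. Fluorescence read kinetically at 0 and 10 min; buffer-only wells as negative control.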
# Potency means the concentration at half of the fitted maximal effect.
Compound,Potency,"activity, negative = inhibition"
O=S(=O)(/C=C/c1ccccc1)N1CCN(Cc2ccc3c(c2)OCO3)CC1,"inconclusive: 63.1 µM [inhibitor, partial curve, poor fit]",
Cc1ccc(NC(=O)C(C)Sc2nc(-c3ccccc3)c(C#N)c(=O)[nH]2)c(C)c1 (stereo unspecified),,inactive: -11.2%
CC(C)c1nc(C(N)=O)c2[nH]c(=O)n(-c3ccc(F)cc3)c2n1,"inconclusive: 28.2 µM [inhibitor, single point]",
COC(=O)COc1cccc2c(=O)n(CC(=O)NCc3ccc(F)cc3)ccc12,"inconclusive: 17.8 µM [inhibitor, full curve, poor fit]",
COc1ccc(C(=O)Nc2ccc(NC(=O)c3ccccn3)cn2)cc1,"inconclusive: 89.1 µM [inhibitor, partial curve, poor fit]",
COc1ccc(S(=O)(=O)N2CCC(C(=O)N3CCc4ccccc4C3)CC2)cc1C,"inconclusive: 50.1 µM [inhibitor, partial curve]",
CC(=O)Nc1ccc(NC(=O)c2ccc3c(c2)NC(=O)c2ccccc2S3)cc1,,inactive: -12.3%
CC(C)CC(=O)N1CCN(Cc2ccc3c(c2)OCO3)CC1,"inconclusive: 70.8 µM [inhibitor, partial curve]",
COc1ccc(/C(C)=N/NC(=O)CNC(=O)c2cccnc2)c(OC)c1,"inconclusive: 0.631 µM [inhibitor, full curve, poor fit]",
O=C(c1cc(-c2ccc(O)cc2)on1)N1CCCC1,"inconclusive: 89.1 µM [inhibitor, single point]",
O=S(=O)(c1ccc2nc(-c3ccco3)c(-c3ccco3)nc2c1)N1CCOCC1,"inconclusive: 10 µM [inhibitor, partial curve, poor fit]",
NS(=O)(=O)c1ccc(-c2ccc(/C=N/NC(=O)c3ccccc3O)o2)cc1,,inactive: 25.1%
CC(Oc1ccc2c(-c3ccccc3)cc(=O)oc2c1)C(=O)NC(Cc1c[nH]c2ccc(O)cc12)C(=O)O (stereo unspecified),"inconclusive: 1.12 µM [inhibitor, full curve, poor fit]",
Cc1ccc(S(=O)(=O)N(C)c2c(C)ccc(S(=O)(=O)N3CCN(C)CC3)c2C)cc1,"inconclusive: 100 µM [inhibitor, partial curve, poor fit]",
Nc1nnc(SCC(=O)N2CCCCC2)s1,,inactive: -0.773%
O=C(CSCc1cc(=O)n2nc(C3CC3)sc2n1)Nc1ccccc1Cl,,inactive: -6.57%
O=C(O)c1ccc(-c2noc(-c3cccc(F)c3)n2)cc1,"inconclusive: 2.82 µM [inhibitor, full curve, poor fit]",
CC(C)(C)c1cnnn1-c1ccc(/C=N/Nc2ccc([N+](=O)[O-])cc2)cc1,"inconclusive: 3.98 µM [inhibitor, partial curve, poor fit]",
Cc1cccc(C(=O)Nc2cccc(C(=O)N/N=C/c3ccccn3)c2)c1,"inconclusive: 7.94 µM [inhibitor, partial curve, poor fit]",
Cc1ccc(S(=O)(=O)Nc2cc3c(cc2C)n(C)c(=O)c(=O)n3C)c(C)c1,"inconclusive: 89.1 µM [inhibitor, single point]",
O=C(CSc1ncnc2sccc12)N1CCCCC1,,inactive: 21.4%

# Laid out differently: 2 of the compounds above.
Compound	Potency	activity, negative = inhibition
COc1ccc(C(=O)Nc2ccc(NC(=O)c3ccccn3)cn2)cc1	inconclusive: 89.1 µM [inhibitor, partial curve, poor fit]	
COc1ccc(S(=O)(=O)N2CCC(C(=O)N3CCc4ccccc4C3)CC2)cc1C	inconclusive: 50.1 µM [inhibitor, partial curve]	

# Later entries:

Compound,Potency,"activity, negative = inhibition"
Cc1cccc(N(C(=O)c2csnn2)C(C(=O)NC(C)(C)C)c2ccncc2)c1 (stereo unspecified),"inconclusive: 79.4 µM [inhibitor, single point]",
O=C(NCCc1ccccc1)C1c2ccccc2C(=O)N1Cc1cccs1 (stereo unspecified),"inconclusive: 79.4 µM [inhibitor, partial curve, poor fit]",
c1ccc(-c2cnc(CSc3ncnc4sccc34)o2)cc1,"inconclusive: 35.5 µM [inhibitor, partial curve, poor fit]",
Cc1cc(C)nc(Nc2ncc(O)n2-c2ccc(C)c(C)c2)n1,"inconclusive: 25.1 µM [inhibitor, partial curve, poor fit]",
CSCCC(NC(=O)COc1ccccc1)C(=O)N1CCN(c2cccc(C(F)(F)F)c2)CC1 (stereo unspecified),"inconclusive: 89.1 µM [inhibitor, single point]",
COc1ccc(S(=O)(=O)N2CCc3cc(OC)c(OC)cc3C2)cc1,"inconclusive: 39.8 µM [inhibitor, single point]",
Cc1ccc(O)c(C2=Nc3ccccc3N=C(c3cccs3)C2)c1,,inactive: 15.5%
O=C(CCCl)Nc1cccc2cccnc12,"inconclusive: 14.1 µM [inhibitor, partial curve, poor fit]",
COc1cc(/C=C2\SC(=S)N(NS(=O)(=O)c3ccccc3)C2=O)cc(OC)c1OC,,inactive: -4.34%
Cc1[nH]c2c(C)cccc2c(=O)c1CN1CCCCCC1,,inactive: 11.6%
OCCN1CCN(Cc2cc(Br)cc(Br)c2O)CC1,"inconclusive: 20 µM [inhibitor, partial curve, poor fit]",
C=CCN1CCN(C(c2ccccc2)c2nnnn2CCC(C)C)CC1 (stereo unspecified),"inconclusive: 1.58 µM [inhibitor, partial curve, poor fit]",
O=C1C2=C(SCCS2)C(=O)N1CCCO,"inconclusive: 89.1 µM [inhibitor, single point]",
CCOC(=O)N1C/C(=C\c2ccccc2)C(=O)/C(=C/c2ccccc2)C1,"inconclusive: 1.26 µM [inhibitor, full curve, poor fit]",
CC(=O)c1c(C)[nH]c(C(=O)OCC(=O)Nc2sc3c(c2C#N)CCC(C)C3)c1C (stereo unspecified),"inconclusive: 20 µM [inhibitor, partial curve, poor fit]",
CCOC(=O)C(CC)n1cnc2sc3c(c2c1=O)CCC3 (stereo unspecified),"inconclusive: 22.4 µM [inhibitor, single point]",
Cn1c(=O)cc2c3c(c(N4CCCCC4)ccc31)C(=O)c1ccccc1-2,"inconclusive: 7.08 µM [inhibitor, partial curve, poor fit]",
CCOC(=O)C(O)(CC(=O)Nc1ccc(Cl)cc1Cl)C(F)(F)F (stereo unspecified),,inactive: 25.3%
CCOC(=O)C1=C(COC(=O)c2ccc(Br)c(S(=O)(=O)N3CCOCC3)c2)NC(=O)NC1C (stereo unspecified),"inconclusive: 39.8 µM [inhibitor, single point]",
Cc1ccc(SCc2cc(=O)[nH]c(/N=C(\N)Nc3ccc(C)c(C)c3)n2)cc1,,inactive: 7.58%

# — PubChem BioAssay AID588590 (National Center for Advancing Translational Sciences (NCATS), 2011)
